# Results of single-concentration screens

Data taken from ChEMBL document CHEMBL3988442, “University of Dundee, Small-Polar-MMV Screening Library” (2021).

A: 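Growth of Mycobacterium tuberculosis over 3 days (7H9 medium with glucose and tyloxapol); the read-out is not stated. Compounds at 500 µM. The record gives no direction; compounds that gave an IC50 in retests scored well above the rest, so higher reads as more growth inhibition. Size under these conditions: about 18,000 compounds, about 1,400 of them at 50% or above in at least one test.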
B: 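Growth of Mycobacterium tuberculosis over 4 days (cholesterol / DPPC medium with tyloxapol); the read-out is not stated. Compounds at 500 µM. Direction is inferred from retests: higher values go with more growth inhibition. About 18,000 compounds were tested under these conditions; 5% (about 900) showed 50% or more at least once.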

Values are the deposited “Percent Effect”, in %.
The controls that fix the scale are not given in the record; negative values are as filed.
This is an unselected part of the compounds tested.

Compound | A | B
COc1ccccc1N1CCC(Sc2cnn[nH]2)C1=O (centres undefined) | 31.37 | 33.84
O=C(CN1CCN(CCO)CC1)Nc1ccc(Br)cn1 | -1.012 | 1.764
CC(C)c1nnc(CN2C[C@@H](C)[C@@](C)(O)C2)o1 | 3.949 | -9.819
Cn1cc(C(=O)Nc2ccc(-n3cncn3)nc2)cn1 | 6.476 | 2.091
CNC(=O)c1ccc(CNc2cc(OC)ncn2)o1 | 3.236 | -2.854
Cn1cc(C(N)C2(CO)CCC2)cn1 (centres undefined) | 7.738 | 1.724
CC1(CO)CCCCN1 (centres undefined) | -16.06 | -13.55
CNC(=O)Cc1cccs1 | -0.9753 | 4.495
COCCNCCNC(=O)c1csc2ccccc12 | 40.45 | 16.91
Cc1ccc(C2COCCN2)o1 (centres undefined) | 7.375 | 1.783
CC(=O)NCCNC(=O)NC(C)c1ccc(C)o1 (centres undefined) | 13.44 | 6.248
CC(C)(CN)C1(O)CCCOC1 (centres undefined) | -4.939 | -1.055
O=C(Cn1nc2ccccn2c1=O)N1CCCCCC1 | 4.319 | 0.3997
CC(c1ccncc1)N(C)C(=O)CNC(=O)N(C)C (centres undefined) | 14.24 | -1.663
C=C(C)CNC(=O)Nc1ccn(-c2ncccc2Cl)n1 | -7.725 | 6.048
NC1CCCc2occc21 (centres undefined) | 63.68 | 53.47
CN(C)C(=O)c1ccc(CN)cc1 | 2.145 | -6.061
CCc1nnc2ccc(NC3CC3)nn12 | 40.42 | 44.86
CCCOC1CCCN(C[C@H](O)CC)C1 (some centres undefined) | 12.32 | -5.368
CS(=O)(=O)Cc1ccccc1CN | 0.9702 | -6.733
CCN(CC)S(=O)(=O)CCNC(=O)c1nccnc1N | -2.845 | -0.8748
CS(=O)(=O)CCN1CCSC2(CCCCC2)C1 | 29.7 | 26.43
CC(O)C1CCN(Cc2ccccc2C#N)CC1 (centres undefined) | 15.04 | 0.3334
Cc1cc(CC(=O)NCCCc2ccncc2)on1 | 21.11 | 87.19
CN(C)C(=O)NCCNC(=O)NCc1ccco1 | 14.39 | 10.02
NS(=O)(=O)N1CCCNCC1 | -2.627 | 7.834
CS(=O)(=O)NCCCOc1cccc(C(F)(F)F)n1 | 36.75 | -10.37
CC(C)c1nc(CN(CCO)Cc2nccn2C)co1 | 6.219 | 14.73
Cc1cccc(N2CCN(CCCN)CC2)c1 | 49.95 | 98.98
N#Cc1ccc2c(c1)OCCO2 | -0.08139 | 3.662
Cc1cc(C(=O)NC(C)(CO)C2CCCCC2)no1 (centres undefined) | 20.73 | 12.47
CNC(=O)CCc1cc(Br)cs1 | 34.67 | 12.42
CCC(OC)C(=O)NCCCn1ccnc1C(C)C (centres undefined) | 17 | 14.38
CN(CC(=O)N1CCSCC1)C(=O)OC(C)(C)C | 4.426 | 0.0334
Cc1cc(C2CCCN2CC(=O)N2CCOCC2)on1 (centres undefined) | -1.466 | -4.596
CN1CCCCC1CN1CCc2c(c(CO)nn2C)C1 (centres undefined) | -34.3 | -21.39
CCCn1cc(CNc2ccc(F)cn2)cn1 | 65.97 | 76.13
CCn1ncnc1CN1CCCC1c1nc(C)n[nH]1 (centres undefined) | 4.713 | 2.038
CCOC(=O)Nc1ccc(-n2cnnn2)cc1OC | 0.4478 | 2.527
COC(=O)CNC(=O)c1cc(Br)ccc1OC(F)F | 23.35 | 20
CCN(Cc1ccc(S(=O)(=O)N(C)C)o1)C1CC1 | 18.02 | 10.59
C[S+]([O-])Cc1ccccc1NC(=O)c1ccccn1 (centres undefined) | -5.401 | -8.092
N#Cc1cc(Br)ccn1 | -7.272 | -16.89
CCn1cnnc1C(C)NC(=O)c1cc(CO)ccn1 (centres undefined) | 11.47 | -0.8517
NC(=O)COc1ccccc1OCC(N)=O | -3.155 | -3.755
NC1CCN(C(=O)c2cn[nH]c2)CC1 | -9.776 | -6.126
Cc1nccc(C(=O)NCC(C)(C)CN(C)C)n1 | 1.184 | -2.403
COC(=O)Cc1ccc2c(c1)CCN2 | 5.095 | 5.592
NC(=O)CCCNS(=O)(=O)c1cc(F)cc(F)c1 | 28.13 | 13.07
CCNCC(=O)Nc1cccc(OC)c1 | 15.31 | 18.43
CCc1nccn1CCNC(=O)[C@H]1CC[C@@H](O)CC1 | -10.97 | -10.18
CCCc1nc(CN2C(=O)c3ccccc3C2=O)no1 | 15.48 | 11.46
CC1CCC(NC(=O)CN2CCCS(=O)(=O)CC2)CC1 (centres undefined) | 20.43 | 15.11
CC(C)(C)OC(=O)N1CCN(c2cc(N)ncn2)CC1 | 0.01482 | 4.328
CCC(CC)NC(=O)Cn1cc(Br)ccc1=O | 4.597 | 2.956
O=C1NCCCCC1N1CCNCC1 (centres undefined) | 1.933 | 0.1373
CCCC(=O)Nc1nnc2ccccn12 | -7.136 | -26.72
O=C(Nc1ccncc1)N(CCO)CC1CC1 | 19.86 | 10.98

4 of the entries, repeated:

| Compound | A | B |
|---|---|---|
| `CCC(OC)C(=O)NCCCn1ccnc1C(C)C` (centres undefined) | 17 | 14.38 |
| `CCC(CC)NC(=O)Cn1cc(Br)ccc1=O` | 4.597 | 2.956 |
| `CCCC(=O)Nc1nnc2ccccn12` | -7.136 | -26.72 |
| `CNC(=O)Cc1cccs1` | -0.9753 | 4.495 |